Laboratory results from article PMC10949598.
Like-named read-outs stand apart in the source and are kept apart here. Results are given in words; binding and its absence hold for the method and conditions named. Binding seen in cells or lysates may run through a third protein. A yes stands for co-enrichment or nearness to the bait. Other partners may have been found. For some of these results: A no says only that the protein was not detected with the bait. For some of these results: Tags and fused reporters may be left off the sequences shown. Each block holds one molecule with its values, some of them ahead of it.

Chains of the proteins cited; added tags and fusions are not shown.
UniProt Q8IWT3: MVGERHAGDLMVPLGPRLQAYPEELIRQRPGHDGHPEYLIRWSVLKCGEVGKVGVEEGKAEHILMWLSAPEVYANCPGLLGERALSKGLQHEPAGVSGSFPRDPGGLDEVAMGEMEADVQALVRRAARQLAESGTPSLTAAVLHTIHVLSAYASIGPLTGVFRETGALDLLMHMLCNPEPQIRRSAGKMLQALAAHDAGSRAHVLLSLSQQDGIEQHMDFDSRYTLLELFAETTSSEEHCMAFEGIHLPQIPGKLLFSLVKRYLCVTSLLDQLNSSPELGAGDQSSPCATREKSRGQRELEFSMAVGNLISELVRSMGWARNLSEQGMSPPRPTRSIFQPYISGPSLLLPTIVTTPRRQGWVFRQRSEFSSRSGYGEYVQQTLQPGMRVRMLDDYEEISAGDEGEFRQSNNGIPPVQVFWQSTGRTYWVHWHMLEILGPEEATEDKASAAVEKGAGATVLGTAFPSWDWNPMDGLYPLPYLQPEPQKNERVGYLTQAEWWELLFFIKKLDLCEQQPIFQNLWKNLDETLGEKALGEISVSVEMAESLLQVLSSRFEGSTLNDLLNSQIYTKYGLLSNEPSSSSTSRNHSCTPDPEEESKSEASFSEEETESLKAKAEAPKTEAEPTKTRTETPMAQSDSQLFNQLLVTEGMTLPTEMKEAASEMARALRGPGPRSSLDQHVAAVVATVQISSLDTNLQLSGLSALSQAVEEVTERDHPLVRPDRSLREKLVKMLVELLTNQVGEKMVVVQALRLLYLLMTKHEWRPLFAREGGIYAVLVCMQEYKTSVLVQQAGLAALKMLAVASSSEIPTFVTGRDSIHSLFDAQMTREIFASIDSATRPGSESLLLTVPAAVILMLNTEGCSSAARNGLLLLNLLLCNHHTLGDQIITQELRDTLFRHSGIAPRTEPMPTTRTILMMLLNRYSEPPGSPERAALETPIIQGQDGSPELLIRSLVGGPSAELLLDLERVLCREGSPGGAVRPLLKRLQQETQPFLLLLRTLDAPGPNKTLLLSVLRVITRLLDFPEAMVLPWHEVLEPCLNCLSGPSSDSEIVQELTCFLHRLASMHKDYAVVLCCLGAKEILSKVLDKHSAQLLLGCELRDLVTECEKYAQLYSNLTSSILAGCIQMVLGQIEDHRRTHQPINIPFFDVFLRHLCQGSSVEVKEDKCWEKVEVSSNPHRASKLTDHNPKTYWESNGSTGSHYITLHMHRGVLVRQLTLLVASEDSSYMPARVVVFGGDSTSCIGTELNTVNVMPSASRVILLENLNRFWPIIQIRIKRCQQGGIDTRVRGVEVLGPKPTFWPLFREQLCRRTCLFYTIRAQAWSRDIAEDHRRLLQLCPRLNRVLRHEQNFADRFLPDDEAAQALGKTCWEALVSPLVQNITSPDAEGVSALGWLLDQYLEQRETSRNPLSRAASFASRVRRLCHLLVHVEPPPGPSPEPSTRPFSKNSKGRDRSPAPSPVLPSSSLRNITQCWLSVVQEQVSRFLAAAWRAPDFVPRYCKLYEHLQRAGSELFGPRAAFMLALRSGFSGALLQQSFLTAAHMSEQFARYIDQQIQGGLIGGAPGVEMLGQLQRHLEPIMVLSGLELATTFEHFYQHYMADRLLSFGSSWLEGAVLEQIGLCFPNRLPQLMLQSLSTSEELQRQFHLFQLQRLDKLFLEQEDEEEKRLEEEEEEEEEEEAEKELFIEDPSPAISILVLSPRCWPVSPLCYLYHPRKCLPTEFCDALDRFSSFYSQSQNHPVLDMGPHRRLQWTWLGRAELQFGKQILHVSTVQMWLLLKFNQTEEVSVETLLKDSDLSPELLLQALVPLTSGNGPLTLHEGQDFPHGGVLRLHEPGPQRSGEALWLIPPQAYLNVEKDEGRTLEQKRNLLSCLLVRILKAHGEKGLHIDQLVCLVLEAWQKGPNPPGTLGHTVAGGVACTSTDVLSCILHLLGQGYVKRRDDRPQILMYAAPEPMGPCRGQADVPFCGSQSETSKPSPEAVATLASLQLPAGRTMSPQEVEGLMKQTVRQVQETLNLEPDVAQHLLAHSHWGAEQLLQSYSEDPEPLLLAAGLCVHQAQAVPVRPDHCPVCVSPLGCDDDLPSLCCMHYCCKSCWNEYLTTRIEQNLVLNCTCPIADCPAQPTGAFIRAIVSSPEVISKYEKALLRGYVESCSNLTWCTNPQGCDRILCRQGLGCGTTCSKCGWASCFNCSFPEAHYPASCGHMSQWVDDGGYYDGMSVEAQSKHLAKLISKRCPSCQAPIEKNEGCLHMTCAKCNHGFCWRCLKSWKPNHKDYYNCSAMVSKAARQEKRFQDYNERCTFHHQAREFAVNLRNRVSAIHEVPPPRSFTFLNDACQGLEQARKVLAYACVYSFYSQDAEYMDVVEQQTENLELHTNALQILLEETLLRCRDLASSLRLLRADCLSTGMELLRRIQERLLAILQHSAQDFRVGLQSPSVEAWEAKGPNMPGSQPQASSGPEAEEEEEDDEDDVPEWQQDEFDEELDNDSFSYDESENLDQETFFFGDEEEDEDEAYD
UniProt P35579: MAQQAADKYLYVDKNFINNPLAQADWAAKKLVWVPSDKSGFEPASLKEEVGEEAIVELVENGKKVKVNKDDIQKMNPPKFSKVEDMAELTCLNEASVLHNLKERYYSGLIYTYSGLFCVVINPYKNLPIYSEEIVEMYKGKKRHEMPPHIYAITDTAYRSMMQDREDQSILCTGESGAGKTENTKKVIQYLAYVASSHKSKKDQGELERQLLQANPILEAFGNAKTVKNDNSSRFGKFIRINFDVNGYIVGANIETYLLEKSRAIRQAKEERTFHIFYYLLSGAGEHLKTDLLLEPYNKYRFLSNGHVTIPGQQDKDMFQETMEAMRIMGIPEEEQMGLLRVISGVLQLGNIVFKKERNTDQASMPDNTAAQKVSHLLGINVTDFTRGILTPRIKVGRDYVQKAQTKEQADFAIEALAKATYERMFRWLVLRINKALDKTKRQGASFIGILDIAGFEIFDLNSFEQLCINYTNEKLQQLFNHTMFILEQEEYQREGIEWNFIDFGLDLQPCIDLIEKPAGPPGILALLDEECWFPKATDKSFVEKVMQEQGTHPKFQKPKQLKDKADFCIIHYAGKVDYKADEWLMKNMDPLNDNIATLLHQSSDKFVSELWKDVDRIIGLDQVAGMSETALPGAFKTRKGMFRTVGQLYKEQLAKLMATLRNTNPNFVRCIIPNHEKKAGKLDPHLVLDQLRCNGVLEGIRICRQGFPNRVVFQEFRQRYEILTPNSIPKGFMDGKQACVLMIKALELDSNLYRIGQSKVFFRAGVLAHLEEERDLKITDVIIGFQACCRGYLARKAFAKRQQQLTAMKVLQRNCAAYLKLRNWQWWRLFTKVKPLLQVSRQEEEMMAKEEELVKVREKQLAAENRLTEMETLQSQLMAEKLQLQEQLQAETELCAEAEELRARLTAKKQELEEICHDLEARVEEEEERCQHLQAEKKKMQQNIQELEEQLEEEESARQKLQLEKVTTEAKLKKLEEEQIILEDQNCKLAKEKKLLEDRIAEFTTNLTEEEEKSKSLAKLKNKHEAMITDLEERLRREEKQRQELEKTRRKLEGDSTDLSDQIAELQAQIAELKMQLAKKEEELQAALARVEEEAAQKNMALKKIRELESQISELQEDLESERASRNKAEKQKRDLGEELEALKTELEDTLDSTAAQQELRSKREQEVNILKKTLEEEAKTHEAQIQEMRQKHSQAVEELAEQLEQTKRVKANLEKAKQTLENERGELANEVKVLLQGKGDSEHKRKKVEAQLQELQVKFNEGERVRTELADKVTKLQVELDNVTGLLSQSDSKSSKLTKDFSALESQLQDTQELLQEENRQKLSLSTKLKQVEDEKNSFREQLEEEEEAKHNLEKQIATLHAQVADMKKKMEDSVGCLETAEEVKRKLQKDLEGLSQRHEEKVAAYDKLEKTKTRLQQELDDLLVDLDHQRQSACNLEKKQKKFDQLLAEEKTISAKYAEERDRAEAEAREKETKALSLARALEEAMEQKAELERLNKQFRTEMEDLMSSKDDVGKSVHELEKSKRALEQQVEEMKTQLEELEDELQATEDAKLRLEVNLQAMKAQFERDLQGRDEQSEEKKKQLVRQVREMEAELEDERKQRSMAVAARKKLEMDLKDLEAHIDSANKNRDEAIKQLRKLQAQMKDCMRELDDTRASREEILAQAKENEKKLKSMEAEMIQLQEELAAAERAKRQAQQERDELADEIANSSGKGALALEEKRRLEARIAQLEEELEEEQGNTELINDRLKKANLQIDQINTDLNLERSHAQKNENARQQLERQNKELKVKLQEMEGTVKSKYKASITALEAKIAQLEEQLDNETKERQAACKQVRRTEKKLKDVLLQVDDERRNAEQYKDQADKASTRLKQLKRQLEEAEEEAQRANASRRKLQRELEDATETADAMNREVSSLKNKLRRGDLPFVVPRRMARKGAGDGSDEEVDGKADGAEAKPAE

Columns and labels:
Test in all cases: affinity purification with mass spectrometry; co-IP from SK-BR-3 cells overexpressing TMEM120B or TMEM120B-ΔCCD, gel pieces analysed by nano-LC-MS/MS
[1] = molecular target: T1, TMEM120B-Myc (pCMV6-TMEM120B-Myc), full length (human) (UniProt A0PK00)
T1 sequence: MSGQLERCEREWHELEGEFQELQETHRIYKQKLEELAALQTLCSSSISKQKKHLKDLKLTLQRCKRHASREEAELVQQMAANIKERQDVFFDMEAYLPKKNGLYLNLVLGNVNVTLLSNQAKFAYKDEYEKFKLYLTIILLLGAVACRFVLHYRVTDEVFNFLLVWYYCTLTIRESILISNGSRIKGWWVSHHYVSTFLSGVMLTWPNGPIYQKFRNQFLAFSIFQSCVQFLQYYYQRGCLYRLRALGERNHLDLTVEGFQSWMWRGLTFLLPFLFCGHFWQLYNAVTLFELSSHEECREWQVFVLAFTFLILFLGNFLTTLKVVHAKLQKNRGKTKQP

[2] = molecular target: TMEM120B-ΔCCD-Myc (pCMV6-TMEM120B-ΔCCD-Myc) (human)
[3] = molecular target: T1, TMEM120B-Myc (pCMV6-TMEM120B-Myc), full length (human); remark: listed apart in the source

- binding [1]: binds
Molecule: CUL9, endogenous in SK-BR-3 cells (from UniProt Q8IWT3 1-2517)

- binding [1]: binds
Molecule: Myosin heavy chain 9 (MYH9) in SK-BR-3 cells (from UniProt P35579 1-1960)

- binding [2]: no binding
- binding [3]: binds
B1: BRSK2, endogenous in SK-BR-3 cells (protein, UniProt Q8IWQ3 1-736)
chain: MTSTGKDGGAQHAQYVGPYRLEKTLGKGQTGLVKLGVHCVTCQKVAIKIVNREKLSESVLMKVEREIAILKLIEHPHVLKLHDVYENKKYLYLVLEHVSGGELFDYLVKKGRLTPKEARKFFRQIISALDFCHSHSICHRDLKPENLLLDEKNNIRIADFGMASLQVGDSLLETSCGSPHYACPEVIRGEKYDGRKADVWSCGVILFALLVGALPFDDDNLRQLLEKVKRGVFHMPHFIPPDCQSLLRGMIEVDAARRLTLEHIQKHIWYIGGKNEPEPEQPIPRKVQIRSLPSLEDIDPDVLDSMHSLGCFRDRNKLLQDLLSEEENQEKMIYFLLLDRKERYPSQEDEDLPPRNEIDPPRKRVDSPMLNRHGKRRPERKSMEVLSVTDGGSPVPARRAIEMAQHGQRSRSISGASSGLSTSPLSSPRVTPHPSPRGSPLPTPKGTPVHTPKESPAGTPNPTPPSSPSVGGVPWRARLNSIKNSFLGSPRFHRRKLQVPTPEEMSNLTPESSPELAKKSWFGNFISLEKEEQIFVVIKDKPLSSIKADIVHAFLSIPSLSHSVISQTSFRAEYKATGGPAVFQKPVKFQVDITYTEGGEAQKENGIYSVTFTLLSGPSRRFKRVVETIQAQLLSTHDPPAAQHLSDTTNCMEMMTGRLSKCGSPLSNFFDVIKQLFSDEKNGQAAQAPSTPAKRSAHGPLGDSAAAGPGPGGDAEYPTGKDTAKMGPPTARREQP
